These are yes or no findings as the source states them, for the method shown. For part of these data: Binding calls can cover weak binding; strength is not graded here. For part of these data: Sequences can lack the tags named with a protein. For part of these data: Binding seen in cells or lysates may run through a third protein.
Experiments:
[1] = target: T1, endogenous human Nmi (human (endogenous in U251 and human foreskin fibroblasts)) (UniProt Q13287); experiment: co-IP; cells containing pCMV-FLAG-UL23, as for U251-UL23 cells
T1 sequence: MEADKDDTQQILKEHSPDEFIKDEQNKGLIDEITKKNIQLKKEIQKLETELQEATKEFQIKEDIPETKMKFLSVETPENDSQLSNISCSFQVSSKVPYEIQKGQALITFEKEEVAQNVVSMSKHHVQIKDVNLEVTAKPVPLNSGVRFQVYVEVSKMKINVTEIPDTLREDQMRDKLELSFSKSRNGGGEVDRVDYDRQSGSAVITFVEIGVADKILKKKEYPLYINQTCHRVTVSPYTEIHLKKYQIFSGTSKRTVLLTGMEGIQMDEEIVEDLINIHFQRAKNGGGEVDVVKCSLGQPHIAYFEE

[2] = target: T2, FLAG-tagged human Nmi, full length (pCMV-FLAG-Nmi) (human) (UniProt Q13287); experiment: co-IP; HA-tagged UL23 and FLAG-tagged Nmi in HeLa cells
T2 sequence: T1 sequence

[3] = target: T2, FLAG-tagged human Nmi, full length (pCMV-FLAG-Nmi) (human); experiment: co-IP; HA-tagged UL23 and FLAG-tagged Nmi in HCMV-infected U251 cells
[4] = target: T2, FLAG-tagged human Nmi, full length (pCMV-FLAG-Nmi) (human); experiment: co-IP; U251 cells co-transfected with plasmids for HA- and FLAG-tagged proteins, harvested at 48 h; IP with anti-HA or anti-FLAG, blots with anti-HA and anti-FLAG
[5] = target: T3, FLAG-tagged UL70 protein of HCMV (human cytomegalovirus (HCMV)) (UniProt P17149); experiment: as above
T3 sequence: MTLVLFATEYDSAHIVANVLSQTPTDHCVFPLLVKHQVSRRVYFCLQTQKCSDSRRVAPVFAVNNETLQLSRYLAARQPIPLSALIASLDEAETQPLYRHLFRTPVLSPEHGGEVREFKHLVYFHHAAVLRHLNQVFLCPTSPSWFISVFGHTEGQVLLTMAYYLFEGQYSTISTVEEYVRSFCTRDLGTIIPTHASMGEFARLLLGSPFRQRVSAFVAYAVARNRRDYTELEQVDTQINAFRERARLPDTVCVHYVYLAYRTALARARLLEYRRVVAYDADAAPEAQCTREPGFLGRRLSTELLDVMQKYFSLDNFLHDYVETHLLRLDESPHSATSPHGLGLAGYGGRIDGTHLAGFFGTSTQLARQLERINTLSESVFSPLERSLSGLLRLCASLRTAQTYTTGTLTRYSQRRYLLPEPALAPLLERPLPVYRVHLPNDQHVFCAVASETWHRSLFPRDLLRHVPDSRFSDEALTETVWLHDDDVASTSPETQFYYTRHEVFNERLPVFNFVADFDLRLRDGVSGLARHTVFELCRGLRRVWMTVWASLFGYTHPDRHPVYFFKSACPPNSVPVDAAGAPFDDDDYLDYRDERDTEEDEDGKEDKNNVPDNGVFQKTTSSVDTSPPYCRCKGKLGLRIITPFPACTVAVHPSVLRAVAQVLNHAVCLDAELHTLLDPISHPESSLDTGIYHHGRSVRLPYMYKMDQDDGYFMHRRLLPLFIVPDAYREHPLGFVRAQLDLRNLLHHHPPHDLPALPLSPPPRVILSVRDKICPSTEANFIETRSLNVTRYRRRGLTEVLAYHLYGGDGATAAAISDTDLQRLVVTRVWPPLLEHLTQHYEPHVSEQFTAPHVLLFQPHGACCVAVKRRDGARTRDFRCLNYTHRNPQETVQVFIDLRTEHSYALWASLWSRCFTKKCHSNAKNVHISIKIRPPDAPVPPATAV

[6] = target: T1, endogenous human Nmi (human (endogenous in U251 and human foreskin fibroblasts)); experiment: co-IP; IFN-γ-treated U251 cells infected with TowneBAC or the rescued viruses R-ΔUL23 and R-stop (MOI = 1) at 12 h post-treatment, lysates at 24-48 h postinfection; IP with anti-UL23, anti-Nmi or anti-STAT1
[7] = target: T1, endogenous human Nmi (human (endogenous in U251 and human foreskin fibroblasts)); experiment: co-IP; U251 cells infected with HCMV (MOI = 1), lysates at 48-72 h postinfection; IP with anti-UL23, anti-UL44 or anti-Nmi, blots for UL23, UL44 and Nmi
[8] = target: T1, endogenous human Nmi (human (endogenous in U251 and human foreskin fibroblasts)); experiment: co-IP; IFN-γ-treated human foreskin fibroblasts infected with TowneBAC or the rescued viruses
[9] = target: HCMV UL23(129-284aa) fused with the GAL4 DNA-binding domain (pGBKT7-UL23(129-284aa)) (human cytomegalovirus (HCMV)); experiment: two-hybrid; binary test: yeast AH109 co-transformed with one BD and one AD plasmid; growth on SD-minus Trp/Leu/Ade/His and beta-gal filter lift
[10] = target: HCMV UL23(1-178aa) fused with the GAL4 DNA-binding domain (pGBKT7-UL23(1-178aa)) (human cytomegalovirus (HCMV)); experiment: as above
[11] = target: FLAG-tagged HCMV UL23(1-178aa) (pCMV-FLAG-UL23(1-178aa)) (human cytomegalovirus (HCMV)); experiment: co-IP; FLAG-tagged truncation constructs of Nmi or UL23 transfected into U251 cells
[12] = target: FLAG-tagged HCMV UL23(129-284aa) (pCMV-FLAG-UL23(129-284aa)) (human cytomegalovirus (HCMV)); experiment: as above

FLAG-tagged HCMV UL23, full length (pCMV-FLAG-UL23) (human cytomegalovirus (HCMV))
binding [1]: binds

HA-tagged HCMV UL23, full length (pCMV-HA-UL23) (human cytomegalovirus (HCMV))
binding [2]: binds | binding [3]: binds | binding [4]: binds | binding [5]: no binding

native (untagged) UL23 expressed during HCMV infection (human cytomegalovirus (HCMV), TowneBAC)
binding [6]: binds | binding [7]: binds | binding [8]: binds

B1: human Nmi, full length, fused with the GAL4 activation domain (pACT2-Nmi library clone; pGADT7-Nmi) (protein, UniProt Q13287 1-307)
chain: T1 sequence
binding [9]: binds | binding [10]: no binding

B2: Nmi as partner in the co-IP with truncated FLAG-tagged UL23 (protein, UniProt Q13287 1-307)
chain: T1 sequence
binding [11]: no binding | binding [12]: binds
